One assay has as its target T1, GFP-tagged Vps16 (UniProt Q9H269).
T1 sequence: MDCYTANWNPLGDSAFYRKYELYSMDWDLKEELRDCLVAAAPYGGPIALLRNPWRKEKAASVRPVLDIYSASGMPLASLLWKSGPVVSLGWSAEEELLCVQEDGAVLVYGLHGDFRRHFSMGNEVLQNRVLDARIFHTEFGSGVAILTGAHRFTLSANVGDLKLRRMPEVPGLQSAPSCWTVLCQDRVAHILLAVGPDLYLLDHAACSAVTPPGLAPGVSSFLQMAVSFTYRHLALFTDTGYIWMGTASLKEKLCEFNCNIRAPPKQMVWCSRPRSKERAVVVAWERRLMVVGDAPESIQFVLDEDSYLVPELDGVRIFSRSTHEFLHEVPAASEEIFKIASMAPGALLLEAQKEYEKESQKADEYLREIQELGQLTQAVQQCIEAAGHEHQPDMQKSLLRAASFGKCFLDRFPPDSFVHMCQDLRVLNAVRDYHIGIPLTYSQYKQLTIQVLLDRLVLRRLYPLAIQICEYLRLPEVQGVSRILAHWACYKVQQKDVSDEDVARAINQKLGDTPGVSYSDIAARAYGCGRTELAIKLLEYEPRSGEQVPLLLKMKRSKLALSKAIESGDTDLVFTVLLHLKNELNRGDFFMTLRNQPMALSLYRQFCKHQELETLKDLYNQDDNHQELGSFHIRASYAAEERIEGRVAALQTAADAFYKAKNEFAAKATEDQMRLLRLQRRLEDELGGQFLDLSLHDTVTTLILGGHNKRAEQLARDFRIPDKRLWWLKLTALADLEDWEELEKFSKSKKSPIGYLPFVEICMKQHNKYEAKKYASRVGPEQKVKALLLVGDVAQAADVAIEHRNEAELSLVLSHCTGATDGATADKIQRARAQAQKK
Put plainly: co-IP; IP of GFP-tagged subunits from HeLa cells co-expressing HA-VIPAS39 alone (left panel) or HA-VIPAS39 and HA-Vps33B (right panel), blot for HA; lysis buffer 40 mM TRIS pH 7.4, 100 mM NaCl, 0.1% TX-100, 5 mM EDTA; also read after prolonged exposure of the blot.

The next assay has as its target T2, GFP-tagged Vps8 (UniProt Q8N3P4).
T2 sequence: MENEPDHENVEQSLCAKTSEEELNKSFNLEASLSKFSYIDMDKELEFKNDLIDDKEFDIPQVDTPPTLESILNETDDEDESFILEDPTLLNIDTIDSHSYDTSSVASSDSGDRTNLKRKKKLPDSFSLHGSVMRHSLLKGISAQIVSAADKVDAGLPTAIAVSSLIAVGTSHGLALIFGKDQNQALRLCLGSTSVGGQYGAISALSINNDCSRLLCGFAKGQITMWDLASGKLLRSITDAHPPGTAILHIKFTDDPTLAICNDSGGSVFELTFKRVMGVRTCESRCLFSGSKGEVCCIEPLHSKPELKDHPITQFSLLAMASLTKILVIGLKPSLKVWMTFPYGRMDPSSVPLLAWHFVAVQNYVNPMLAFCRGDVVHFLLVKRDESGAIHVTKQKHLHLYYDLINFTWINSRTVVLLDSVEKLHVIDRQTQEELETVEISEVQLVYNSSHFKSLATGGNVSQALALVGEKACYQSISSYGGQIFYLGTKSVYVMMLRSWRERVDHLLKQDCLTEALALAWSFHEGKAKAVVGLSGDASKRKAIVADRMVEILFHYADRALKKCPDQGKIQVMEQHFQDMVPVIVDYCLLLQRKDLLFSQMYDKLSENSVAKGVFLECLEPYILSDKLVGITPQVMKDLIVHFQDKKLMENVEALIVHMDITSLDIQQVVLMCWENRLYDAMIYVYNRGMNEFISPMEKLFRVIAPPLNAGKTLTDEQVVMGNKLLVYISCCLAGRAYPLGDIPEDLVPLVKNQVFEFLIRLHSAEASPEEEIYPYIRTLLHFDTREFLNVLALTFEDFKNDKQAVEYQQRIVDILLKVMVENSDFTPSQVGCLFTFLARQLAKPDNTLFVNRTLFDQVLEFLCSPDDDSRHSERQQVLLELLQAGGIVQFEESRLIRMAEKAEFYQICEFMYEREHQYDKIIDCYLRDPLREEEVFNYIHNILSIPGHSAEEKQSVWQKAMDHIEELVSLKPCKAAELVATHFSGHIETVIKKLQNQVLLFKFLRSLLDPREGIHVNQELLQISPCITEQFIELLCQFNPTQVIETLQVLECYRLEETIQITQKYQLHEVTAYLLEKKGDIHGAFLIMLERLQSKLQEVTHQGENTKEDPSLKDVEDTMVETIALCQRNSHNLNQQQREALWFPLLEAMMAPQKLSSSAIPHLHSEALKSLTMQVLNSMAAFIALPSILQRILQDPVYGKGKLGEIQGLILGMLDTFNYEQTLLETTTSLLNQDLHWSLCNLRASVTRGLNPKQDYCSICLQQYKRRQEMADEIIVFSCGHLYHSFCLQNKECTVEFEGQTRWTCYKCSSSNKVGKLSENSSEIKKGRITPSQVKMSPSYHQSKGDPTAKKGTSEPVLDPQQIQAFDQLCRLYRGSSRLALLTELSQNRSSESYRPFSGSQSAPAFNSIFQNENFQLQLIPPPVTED
Described as above.

No constants are given. Whether binding was seen depends on the method and setting. Binding seen in cells or lysates may run through a third protein. Sequences can lack the tags named with a protein.

B1: HA-VIPAS39 (protein, UniProt Q9H9C1 1-493)
chain: MNRTKGDEEEYWNSSKFKAFTFDDEDDELSQLKESKRAVNSLRDFVDDDDDDDLERVSWSGEPVGSISWSIRETAGNSGSTHEGREQLKSRNSFSSYAQLPKPTSTYSLSSFFRGRTRPGSFQSLSDALSDTPAKSYAPELGRPKGEYRDYSNDWSPSDTVRRLRKGKVCSLERFRSLQDKLQLLEEAVSMHDGNVITAVLIFLKRTLSKEILFRELEVRQVALRHLIHFLKEIGDQKLLLDLFRFLDRTEELALSHYREHLNIQDPDKRKEFLKTCVGLPFSAEDSAHIQDHYTLLERQIIIEANDRHLESAGQTEIFRKHPRKASILNMPLVTTLFYSCFYHYTEAEGTFSSPVNLKKTFKIPDKQYVLTALAARAKLRAWNDVDALFTTKNWLGYTKKRAPIGFHRVVEILHKNNAPVQILQEYVNLVEDVDTKLNLATKFKCHDVVIDTYRDLKDRQQLLAYRSKVDKGSAEEEKIDALLSSSQIRWKN
Regarding B1, the binding entry with GFP-tagged Vps16 and with GFP-tagged Vps8 was “no binding” each time.

B2: HA-Vps33B (protein, UniProt Q9H267 1-617)
chain: MAFPHRPDAPELPDFSMLKRLARDQLIYLLEQLPGKKDLFIEADLMSPLDRIANVSILKQHEVDKLYKVENKPALSSNEQLCFLVRPRIKNMRYIASLVNADKLAGRTRKYKVIFSPQKFYACEMVLEEEGIYGDVSCDEWAFSLLPLDVDLLSMELPEFFRDYFLEGDQRWINTVAQALHLLSTLYGPFPNCYGIGRCAKMAYELWRNLEEEEDGETKGRRPEIGHIFLLDRDVDFVTALCSQVVYEGLVDDTFRIKCGSVDFGPEVTSSDKSLKVLLNAEDKVFNEIRNEHFSNVFGFLSQKARNLQAQYDRRRGMDIKQMKNFVSQELKGLKQEHRLLSLHIGACESIMKKKTKQDFQELIKTEHALLEGFNIRESTSYIEEHIDRQVSPIESLRLMCLLSITENGLIPKDYRSLKTQYLQSYGPEHLLTFSNLRRAGLLTEQAPGDTLTAVESKVSKLVTDKAAGKITDAFSSLAKRSNFRAISKKLNLIPRVDGEYDLKVPRDMAYVFGGAYVPLSCRIIEQVLERRSWQGLDEVVRLLNCSDFAFTDMTKEDKASSESLRLILVVFLGGCTFSEISALRFLGREKGYRFIFLTTAVTNSARLMEAMSEVKA
B2: the binding entry with GFP-tagged Vps16 and with GFP-tagged Vps8 was “no binding” in each case.

Values taken from PMC5824891.
